According to the supplement of paper PMC12595434, “Development of retinoid nuclear receptor pathway antagonists through targeting aldehyde dehydrogenase 1A3” (iScience, 2025):
The other results are listed elsewhere or left out. This is a noisy data set.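 Many melting curves are irregular; where none melted, Tm was taken as 64 °C.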

Amino acid sequences for entries named in this document (tags omitted). A change or cut given only in a name is not applied to a line headed by its entry.
UniProt Q96AB3: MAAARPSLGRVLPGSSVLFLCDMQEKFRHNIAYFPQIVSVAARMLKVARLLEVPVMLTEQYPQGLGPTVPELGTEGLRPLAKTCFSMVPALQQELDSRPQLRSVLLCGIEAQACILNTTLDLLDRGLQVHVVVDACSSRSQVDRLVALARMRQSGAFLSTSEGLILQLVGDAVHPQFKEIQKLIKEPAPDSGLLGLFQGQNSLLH
UniProt Q92546: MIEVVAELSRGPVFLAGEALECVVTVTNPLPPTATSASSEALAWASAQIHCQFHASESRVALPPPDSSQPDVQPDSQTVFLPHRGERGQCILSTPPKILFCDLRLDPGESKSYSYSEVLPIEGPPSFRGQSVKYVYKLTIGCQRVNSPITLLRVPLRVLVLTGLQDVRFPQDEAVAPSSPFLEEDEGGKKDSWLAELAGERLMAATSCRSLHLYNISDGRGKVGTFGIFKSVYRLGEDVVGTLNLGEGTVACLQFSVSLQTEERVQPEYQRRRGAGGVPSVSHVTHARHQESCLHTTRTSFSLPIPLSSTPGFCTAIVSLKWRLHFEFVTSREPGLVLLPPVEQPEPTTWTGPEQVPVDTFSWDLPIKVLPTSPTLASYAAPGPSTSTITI
UniProt Q92968: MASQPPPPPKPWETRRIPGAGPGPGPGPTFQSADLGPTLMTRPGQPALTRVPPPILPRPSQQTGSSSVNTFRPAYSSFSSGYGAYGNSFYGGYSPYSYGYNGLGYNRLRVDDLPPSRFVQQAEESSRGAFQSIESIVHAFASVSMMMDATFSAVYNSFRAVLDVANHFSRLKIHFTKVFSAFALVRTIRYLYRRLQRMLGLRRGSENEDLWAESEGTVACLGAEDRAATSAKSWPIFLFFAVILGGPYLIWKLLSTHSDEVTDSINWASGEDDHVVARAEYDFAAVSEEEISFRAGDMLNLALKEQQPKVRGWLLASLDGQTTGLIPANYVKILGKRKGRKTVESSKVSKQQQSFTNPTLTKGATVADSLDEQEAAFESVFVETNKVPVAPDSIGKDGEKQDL
UniProt Q96BW5: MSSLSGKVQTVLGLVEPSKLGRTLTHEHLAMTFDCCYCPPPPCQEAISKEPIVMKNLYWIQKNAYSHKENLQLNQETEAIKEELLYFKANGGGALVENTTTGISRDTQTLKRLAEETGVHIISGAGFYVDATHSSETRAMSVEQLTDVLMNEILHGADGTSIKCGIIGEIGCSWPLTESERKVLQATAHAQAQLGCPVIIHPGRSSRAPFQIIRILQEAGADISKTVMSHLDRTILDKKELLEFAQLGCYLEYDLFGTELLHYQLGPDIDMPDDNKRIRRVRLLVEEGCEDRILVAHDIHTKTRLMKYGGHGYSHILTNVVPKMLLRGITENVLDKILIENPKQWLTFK
UniProt Q8WW59: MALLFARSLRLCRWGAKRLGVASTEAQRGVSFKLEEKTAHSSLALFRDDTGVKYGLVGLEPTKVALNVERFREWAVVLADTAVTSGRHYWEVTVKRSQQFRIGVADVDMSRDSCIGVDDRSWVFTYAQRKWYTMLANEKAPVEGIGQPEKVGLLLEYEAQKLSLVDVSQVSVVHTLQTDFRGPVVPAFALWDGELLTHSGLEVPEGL
UniProt Q96CV9, whole entry: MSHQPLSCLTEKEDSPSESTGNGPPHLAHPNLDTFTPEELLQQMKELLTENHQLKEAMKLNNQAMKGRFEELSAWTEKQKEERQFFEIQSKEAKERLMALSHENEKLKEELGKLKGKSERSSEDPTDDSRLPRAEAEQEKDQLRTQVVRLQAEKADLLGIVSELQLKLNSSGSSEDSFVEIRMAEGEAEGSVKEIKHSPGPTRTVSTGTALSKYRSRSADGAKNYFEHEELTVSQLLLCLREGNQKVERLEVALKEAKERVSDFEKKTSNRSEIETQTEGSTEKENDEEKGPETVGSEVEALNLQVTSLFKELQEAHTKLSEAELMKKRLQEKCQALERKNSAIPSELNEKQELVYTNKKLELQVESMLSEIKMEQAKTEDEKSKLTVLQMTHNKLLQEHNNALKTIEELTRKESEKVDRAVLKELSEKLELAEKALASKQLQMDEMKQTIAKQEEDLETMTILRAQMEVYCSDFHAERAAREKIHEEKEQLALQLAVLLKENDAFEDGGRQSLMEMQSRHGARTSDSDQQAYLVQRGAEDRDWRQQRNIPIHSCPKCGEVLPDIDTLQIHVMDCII
UniProt Q92481: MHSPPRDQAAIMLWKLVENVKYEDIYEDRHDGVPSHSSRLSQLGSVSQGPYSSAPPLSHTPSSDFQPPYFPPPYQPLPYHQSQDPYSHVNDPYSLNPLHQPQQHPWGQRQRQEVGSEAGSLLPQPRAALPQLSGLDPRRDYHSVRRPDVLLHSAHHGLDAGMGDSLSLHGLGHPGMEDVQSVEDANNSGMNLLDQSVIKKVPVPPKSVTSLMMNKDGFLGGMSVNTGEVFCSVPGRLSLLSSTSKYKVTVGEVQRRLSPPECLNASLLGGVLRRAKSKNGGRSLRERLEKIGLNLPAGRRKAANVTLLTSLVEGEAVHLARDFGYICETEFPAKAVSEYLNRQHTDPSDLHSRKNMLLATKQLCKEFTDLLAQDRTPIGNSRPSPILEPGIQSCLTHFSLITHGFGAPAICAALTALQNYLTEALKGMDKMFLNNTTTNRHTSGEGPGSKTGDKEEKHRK
UniProt Q92783: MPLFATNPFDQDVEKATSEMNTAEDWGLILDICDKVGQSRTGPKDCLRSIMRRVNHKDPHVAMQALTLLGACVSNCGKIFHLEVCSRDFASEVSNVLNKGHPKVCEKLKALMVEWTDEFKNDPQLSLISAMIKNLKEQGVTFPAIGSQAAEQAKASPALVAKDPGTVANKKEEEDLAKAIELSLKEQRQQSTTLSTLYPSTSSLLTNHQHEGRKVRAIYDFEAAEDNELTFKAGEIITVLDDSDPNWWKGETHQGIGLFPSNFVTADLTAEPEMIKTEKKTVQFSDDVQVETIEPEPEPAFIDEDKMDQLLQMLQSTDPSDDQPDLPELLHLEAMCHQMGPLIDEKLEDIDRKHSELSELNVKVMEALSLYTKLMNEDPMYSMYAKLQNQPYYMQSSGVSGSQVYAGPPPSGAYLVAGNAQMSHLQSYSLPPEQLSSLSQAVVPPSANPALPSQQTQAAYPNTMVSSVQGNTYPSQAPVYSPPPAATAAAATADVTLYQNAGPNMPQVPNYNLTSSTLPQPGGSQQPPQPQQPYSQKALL
UniProt Q96EI5: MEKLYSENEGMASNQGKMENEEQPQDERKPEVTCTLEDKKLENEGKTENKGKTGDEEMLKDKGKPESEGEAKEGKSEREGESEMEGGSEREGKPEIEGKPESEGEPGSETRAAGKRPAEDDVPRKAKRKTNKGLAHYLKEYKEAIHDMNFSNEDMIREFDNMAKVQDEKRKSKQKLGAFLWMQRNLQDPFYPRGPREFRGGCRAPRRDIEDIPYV
UniProt Q96BN2: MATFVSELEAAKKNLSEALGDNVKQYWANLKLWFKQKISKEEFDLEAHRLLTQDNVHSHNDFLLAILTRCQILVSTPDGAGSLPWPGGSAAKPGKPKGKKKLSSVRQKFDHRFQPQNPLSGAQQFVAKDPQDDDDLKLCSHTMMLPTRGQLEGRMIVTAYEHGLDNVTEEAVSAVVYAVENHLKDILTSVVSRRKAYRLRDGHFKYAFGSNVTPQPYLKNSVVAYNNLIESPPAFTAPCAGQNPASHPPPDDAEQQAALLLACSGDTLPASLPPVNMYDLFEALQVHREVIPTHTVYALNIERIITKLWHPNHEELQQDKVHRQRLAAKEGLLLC
UniProt Q8WXE0: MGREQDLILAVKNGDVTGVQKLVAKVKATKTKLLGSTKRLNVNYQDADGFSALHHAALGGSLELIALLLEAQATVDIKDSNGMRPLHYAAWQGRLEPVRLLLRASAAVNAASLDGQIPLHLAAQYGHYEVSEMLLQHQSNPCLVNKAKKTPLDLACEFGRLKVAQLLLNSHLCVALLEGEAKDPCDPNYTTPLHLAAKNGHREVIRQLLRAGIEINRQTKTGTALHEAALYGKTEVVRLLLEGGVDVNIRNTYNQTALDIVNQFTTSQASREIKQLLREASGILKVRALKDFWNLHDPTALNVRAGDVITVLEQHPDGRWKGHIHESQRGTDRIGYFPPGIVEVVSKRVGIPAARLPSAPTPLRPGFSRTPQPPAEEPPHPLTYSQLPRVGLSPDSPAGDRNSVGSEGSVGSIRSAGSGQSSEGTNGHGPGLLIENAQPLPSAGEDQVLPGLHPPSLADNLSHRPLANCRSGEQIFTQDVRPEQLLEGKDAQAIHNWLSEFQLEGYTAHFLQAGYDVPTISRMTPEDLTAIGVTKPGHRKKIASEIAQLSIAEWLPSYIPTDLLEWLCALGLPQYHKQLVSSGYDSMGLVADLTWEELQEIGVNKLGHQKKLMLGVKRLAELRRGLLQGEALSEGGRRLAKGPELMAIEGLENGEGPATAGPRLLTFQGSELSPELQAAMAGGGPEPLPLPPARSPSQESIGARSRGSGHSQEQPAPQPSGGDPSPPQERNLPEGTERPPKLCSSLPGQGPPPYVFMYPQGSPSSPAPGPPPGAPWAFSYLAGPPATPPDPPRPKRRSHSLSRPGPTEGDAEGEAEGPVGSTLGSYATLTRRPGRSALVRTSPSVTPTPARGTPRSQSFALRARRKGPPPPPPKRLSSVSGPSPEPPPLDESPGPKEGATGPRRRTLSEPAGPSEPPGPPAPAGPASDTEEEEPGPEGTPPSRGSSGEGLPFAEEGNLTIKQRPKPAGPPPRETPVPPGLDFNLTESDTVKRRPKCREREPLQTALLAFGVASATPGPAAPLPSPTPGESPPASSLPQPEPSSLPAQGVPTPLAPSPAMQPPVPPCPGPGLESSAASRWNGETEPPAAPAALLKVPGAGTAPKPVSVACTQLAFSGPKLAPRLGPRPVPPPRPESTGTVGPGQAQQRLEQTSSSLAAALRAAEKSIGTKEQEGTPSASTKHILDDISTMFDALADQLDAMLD
UniProt Q92766: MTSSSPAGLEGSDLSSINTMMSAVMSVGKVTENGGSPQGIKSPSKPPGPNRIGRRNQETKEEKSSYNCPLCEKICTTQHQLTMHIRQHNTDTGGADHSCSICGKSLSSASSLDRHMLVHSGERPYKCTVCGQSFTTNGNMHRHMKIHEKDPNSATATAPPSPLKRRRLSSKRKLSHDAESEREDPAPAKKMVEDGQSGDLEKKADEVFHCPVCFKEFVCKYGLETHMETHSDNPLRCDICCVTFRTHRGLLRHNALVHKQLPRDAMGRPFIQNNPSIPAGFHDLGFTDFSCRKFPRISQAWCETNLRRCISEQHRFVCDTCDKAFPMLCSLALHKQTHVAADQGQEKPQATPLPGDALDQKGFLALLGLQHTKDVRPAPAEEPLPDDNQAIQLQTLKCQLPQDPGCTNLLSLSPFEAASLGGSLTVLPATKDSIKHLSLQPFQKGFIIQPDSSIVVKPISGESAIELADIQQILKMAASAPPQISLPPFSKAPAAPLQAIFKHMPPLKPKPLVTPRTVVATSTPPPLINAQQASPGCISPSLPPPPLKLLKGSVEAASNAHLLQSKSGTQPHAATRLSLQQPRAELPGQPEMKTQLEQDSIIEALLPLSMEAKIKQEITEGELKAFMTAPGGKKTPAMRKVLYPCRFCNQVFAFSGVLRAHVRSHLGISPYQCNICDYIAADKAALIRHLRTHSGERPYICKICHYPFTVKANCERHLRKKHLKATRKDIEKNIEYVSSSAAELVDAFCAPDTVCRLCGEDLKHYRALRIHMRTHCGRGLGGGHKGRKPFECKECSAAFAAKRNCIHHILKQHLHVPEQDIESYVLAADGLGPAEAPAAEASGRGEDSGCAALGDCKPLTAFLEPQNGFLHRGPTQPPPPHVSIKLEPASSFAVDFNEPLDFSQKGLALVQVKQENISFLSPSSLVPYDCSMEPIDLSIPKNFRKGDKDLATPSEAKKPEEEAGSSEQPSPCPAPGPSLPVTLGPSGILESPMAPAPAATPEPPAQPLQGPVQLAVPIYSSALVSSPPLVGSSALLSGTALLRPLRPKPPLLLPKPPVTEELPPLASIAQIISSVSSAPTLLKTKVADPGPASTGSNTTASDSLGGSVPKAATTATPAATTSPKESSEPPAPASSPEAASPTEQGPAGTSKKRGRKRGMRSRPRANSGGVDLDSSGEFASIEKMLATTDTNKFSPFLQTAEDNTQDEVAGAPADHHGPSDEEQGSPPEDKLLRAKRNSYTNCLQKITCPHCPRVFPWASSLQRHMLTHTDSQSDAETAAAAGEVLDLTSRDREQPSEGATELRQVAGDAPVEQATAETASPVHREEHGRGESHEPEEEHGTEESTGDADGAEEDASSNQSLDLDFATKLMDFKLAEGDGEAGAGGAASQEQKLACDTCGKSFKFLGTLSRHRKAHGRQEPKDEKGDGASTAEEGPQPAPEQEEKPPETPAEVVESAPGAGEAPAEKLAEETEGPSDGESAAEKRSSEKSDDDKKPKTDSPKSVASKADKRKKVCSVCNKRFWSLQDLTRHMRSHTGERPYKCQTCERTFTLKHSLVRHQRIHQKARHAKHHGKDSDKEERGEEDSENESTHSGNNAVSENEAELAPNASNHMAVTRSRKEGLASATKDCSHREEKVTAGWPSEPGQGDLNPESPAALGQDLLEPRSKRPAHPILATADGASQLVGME

Compound: CCc1cnccc1C(=O)Nc1cc2c(cc1F)NC(=O)CC2
Experiment: melting temperature shift (DMSO Tm minus MBE1-treated Tm) in cellular thermal proteome profiling; higher = less thermal stabilization by MBE1 (negative = stabilized by MBE1)
Conditions: A375

Target	melting temperature shift (MBE1 concentration: 100 nM) [°C]	melting temperature shift (MBE1 concentration: 1 uM) [°C]
USP7 (UniProt Q93009)	-0.683	-0.325
PPWD1 (UniProt Q96BP3)	0.189	-0.305
GTPBP3 (UniProt Q969Y2)	-1.33	1.11
UniProt Q92674	-1.49	3.86
SREK1 (UniProt Q8WXA9)	0.287	-0.385
UniProt Q96AB3	-1.53	0.466
PSMG2 (UniProt Q969U7)	-0.195	-1.76
NCLN (UniProt Q969V3)	-0.644	0.479
UniProt Q92546	1.19	0.855
DDX17 (UniProt Q92841)	0.0977	-0.495
GFM2 (UniProt Q969S9)	-0.775	-0.858
UniProt Q969R5	-0.231	-1.12
CCDC127 (UniProt Q96BQ5)	0.201	0.282
UniProt Q96DU7	-1.39	-0.794
SMARCC1 (UniProt Q92922)	-0.416	-0.243
ATXN2L (UniProt Q8WWM7)	-0.51	-0.419
UniProt Q96AY2	-8.82	-1.75
CKAP2 (UniProt Q8WWK9)	-1.37	-0.839
OMA1 (UniProt Q96E52)	-2.3	-0.189
UniProt Q93073	1.43	-0.256
CCDC102A (UniProt Q96A19)	-0.659	0.0916
MRRF (UniProt Q96E11)	-0.104	-0.385
PEX13 (UniProt Q92968)	-1.19	-0.288

Looked up one by one from the list above:
Target	melting temperature shift (MBE1 concentration: 100 nM) [°C]	melting temperature shift (MBE1 concentration: 1 uM) [°C]
SMARCC1 (UniProt Q92922)	-0.416	-0.243
CCDC127 (UniProt Q96BQ5)	0.201	0.282

(continued)

Target	melting temperature shift (MBE1 concentration: 100 nM) [°C]	melting temperature shift (MBE1 concentration: 1 uM) [°C]
ALG3 (UniProt Q92685)	0.0738	0.686
DNAJC9 (UniProt Q8WXX5)	0.11	0.342
PTER (UniProt Q96BW5)	-2.41	-2.2
SPRYD4 (UniProt Q8WW59)	-0.838	0.127
MRPL38 (UniProt Q96DV4)	0.116	0.957
TBRG4 (UniProt Q969Z0)	-0.609	-0.0577
UniProt Q8WY91	-1.68	-1.31
UniProt Q92619	0.659	0.0183
AP3S1 (UniProt Q92572)	0.47	0.513
CTNNBL1 (UniProt Q8WYA6)	0.0192	0.141
IFT81 (UniProt Q8WYA0)	-0.358	-0.259
OPTN (UniProt Q96CV9)	0.931	0.464
UniProt Q92481	0.122	0.446
ANKS1A (UniProt Q92625)	-0.996	-0.0448
ATG2B (UniProt Q96BY7)	-1.51	0.912
ATRIP (UniProt Q8WXE1)	0.672	-0.122
PIBF1 (UniProt Q8WXW3)	-1.39	-0.299
UniProt Q96CD2	-2.32	-4.06
UniProt Q8WYL5	0.214	0.055
TAMM41 (UniProt Q96BW9)	0.0733	0.0183
APBB2 (UniProt Q92870)	-0.194	1.25
STAM (UniProt Q92783)	-0.533	0.208
APPBP2 (UniProt Q92624)	0.563	3.19

Target	melting temperature shift (MBE1 concentration: 100 nM) [°C]	melting temperature shift (MBE1 concentration: 1 uM) [°C]
PIGT (UniProt Q969N2)	0.14	1.21
TCEAL4 (UniProt Q96EI5)	-8.06	-7.53
UniProt Q96BN2	-0.955	-0.416
UniProt Q92843	-0.462	-3.14
NDRG1 (UniProt Q92597)	-0.248	0.349
EFHD2 (UniProt Q96C19)	-0.768	1.11
UniProt Q92928	-3.95	4.91
GLMN (UniProt Q92990)	0.232	0.36
CASKIN2 (UniProt Q8WXE0)	-1.17	-0.615
EXOC4 (UniProt Q96A65)	-0.781	-0.729
NUDT16 (UniProt Q96DE0)	-1.07	1.55
UniProt Q96C92	-4.23	-6.55
COPS5 (UniProt Q92905)	-0.838	0.39
PTP4A1 (UniProt Q93096)	-1.8	-0.679
H1FX (UniProt Q92522)	-0.759	-0.319
FKBP10 (UniProt Q96AY3)	-0.805	0.114
RUFY2 (UniProt Q8WXA3)	-0.677	-0.513
CMBL (UniProt Q96DG6)	0.597	0.174
ERCC4 (UniProt Q92889)	-0.936	-1.3
RAD51AP1 (UniProt Q96B01)	-0.49	-0.868
UniProt Q92766	1.61	1.83
USP6NL (UniProt Q92738)	-0.427	-0.775
ADCK4 (UniProt Q96D53)	-0.583	-1.08
